Our source for the binding values is doi:10.1101/2025.05.12.653341.

Amino acid sequences for entries named in this document (tags omitted).
UniProt P05412: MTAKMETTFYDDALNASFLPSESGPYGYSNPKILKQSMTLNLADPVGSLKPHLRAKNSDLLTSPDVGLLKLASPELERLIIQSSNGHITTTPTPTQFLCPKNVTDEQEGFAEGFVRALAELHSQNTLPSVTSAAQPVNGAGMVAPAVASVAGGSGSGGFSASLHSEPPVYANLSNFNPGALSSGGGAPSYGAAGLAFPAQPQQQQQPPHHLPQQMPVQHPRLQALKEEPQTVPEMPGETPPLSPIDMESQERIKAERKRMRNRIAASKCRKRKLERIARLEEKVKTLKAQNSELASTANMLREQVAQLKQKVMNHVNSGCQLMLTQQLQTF

These are yes or no findings as the source states them, for the method shown. Binding seen in cells or lysates may run through a third protein. Some binding calls cover weakened binding; strength is not graded here. Tags and fused reporters may be left off the sequences shown.

The experiment concerns the target T1, ZMAT3-3xFLAG-2xHA (UniProt Q9HA38).
T1 sequence: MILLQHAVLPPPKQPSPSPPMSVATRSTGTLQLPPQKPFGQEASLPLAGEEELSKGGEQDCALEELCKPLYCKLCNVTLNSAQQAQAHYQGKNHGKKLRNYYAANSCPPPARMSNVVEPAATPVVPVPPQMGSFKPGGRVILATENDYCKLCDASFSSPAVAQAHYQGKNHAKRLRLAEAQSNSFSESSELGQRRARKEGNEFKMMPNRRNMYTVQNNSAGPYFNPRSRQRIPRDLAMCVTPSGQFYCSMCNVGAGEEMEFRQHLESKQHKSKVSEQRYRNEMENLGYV
In words: co-IP; anti-FLAG M2 magnetic beads, whole cell lysates of untreated or doxycycline-treated ZMAT3-FLAG-HA HCT116 cells; 10 mM Tris/Cl pH 7.5, 150 mM NaCl, 0.5 mM EDTA, 0.5 % NP40; overnight at 4°C; eluted with 3xFLAG peptide; immunoblotting.

With JUN (c-Jun) (from UniProt P05412 1-331), the binding entry is “binds”.
